# Source: US8003598 (dated 2011)
# Assay: general procedure: Fmoc solid-phase peptide synthesis; HBTU, HOBt and NMM
# Conditions: whole synthesis, RP-HPLC profile
substance,measurement,value
cyclo(G[Met(O)][Met(O)]CVTHCNG) (cysteine pairing not given here),final HPLC purity,99%

# Non-standard residues stand in square brackets, D forms with d. Met(O) = CS(=O)CC[C@H](N)C(=O)O
